Paper PMC8416862 (Clinical Pharmacokinetics, 2021)

Test: Trial 2: plasma pharmacokinetics of single-dose furosemide and rosuvastatin
Format: in vivo, healthy male and female subjects
Conditions: single dose co-administered with oral semaglutide versus alone

## NS(=O)(=O)c1cc(C(=O)O)c(NCc2ccco2)cc1Cl [Furosemide, furosemide]
  increase in total exposure: 28%
